Test results taken from patent EP3173421A1 (Universitat de Barcelona, priority 2015, dated 2017).
For some assays here: One purity is given for all peptides; the source may state it once.

How the values were obtained:
[1] = general procedure: Fmoc solid-phase peptide synthesis; Fmoc-Rink Amide MBHA or BHA resins; DIPCDI/HOBt; settings: for oxidative folding yield: oxidative folding step; for step yield: purification step; for final HPLC purity: area integration of HPLC trace
[2] = general procedure: Fmoc solid-phase peptide synthesis; BHA resin with Fmoc-Rink linker; DIPCDI/HOBt; settings: whole synthesis
[3] = general procedure: Fmoc solid-phase peptide synthesis; Fmoc-Rink Amide MBHA; DIPCDI/HOBt; settings: whole synthesis

Substance | oxidative folding yield [1] [%] | step yield [1] [%] | crude yield ([1]; whole synthesis) [%] | final HPLC purity ([1]; whole synthesis) [%] | crude mass ([2]; scale 0.039 mmole) [mg] | isolated mass ([1]; whole synthesis, scale 1.04 mmole) [g] | crude mass ([3]; scale 1.04 mmole) [g] | crude yield ([3]; scale 1.04 mmole) [%] | crude mass ([2]; scale 0.0345 mmole) [mg] | crude mass ([3]; scale 0.46 mmole) [g] | crude mass ([2]; scale 0.032 mmole) [mg] | crude mass ([2]; scale 0.0366 mmole) [mg]
DAoc-Thr-Dab-cyclo(S-S)[Cys-Dab-DAoc-OLe-Dab-Dab-DCys] | 95 | 19 | 43 | >99 | 18.5 | – | – | – | – | – | – | –
heptanoyl-Dab-Thr-Dab-cyclo(S-S)[Cys-Dab-DAoc-Nle-Dab-Dab-DCys] | – | 61 | – | >99 | – | 0.878 | 1.429 | 89 | – | – | – | –
heptanoyl-Dab-Thr-Dab-cyclo(S-S)[Cys-Dab-DAoc-OLe-Dab-Dab-DCyc] | 97 | 31 | 24 | >99 | – | – | – | – | 10 | – | – | –
hexanoyl-Dab-Thr-Dab-cyclo(S-S)[Cys-Dab-DAoc-Nle-Dab-Dab-DCys] | – | 20 | 100 | >99 | – | – | – | – | – | 0.0575 | – | –
hexanoyl-Dab-Thr-Dab-cyclo(S-S)[Cys-Dab-DAoc-OLe-Dab-Dab-DCys] | 94 | 38 | 49 | >99 | – | – | – | – | – | – | 18.1 | –
octanoyl-Dab-Thr-Dab-cyclo(S-S)[Cys-Dab-DAoc-OLe-Dab-Dab-DCys] | 100 | 25 | 62 | >99 | – | – | – | – | – | – | – | 27.3
